Experimental data as given in the supplement of paper PMC12889115.
Some of the results follow. Values are raw readings; no control value is given beside them.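 Primary screen: polymyxin B was added at a level permeabilizing Salmonella outer membranes while sparing inner membranes. DMSO wells, both with and without polymyxin B, established maximum growth. Plate-to-plate variation meant each plate was ranked on its own, and the lowest-OD600 compounds were selected as hits.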

System: Salmonella enterica serovar Typhimurium SL1344
Test: bacterial growth OD600 after 18 h with compound and polymyxin B; higher = more bacterial growth (less inhibition)
Details: 50 µM, Mueller-Hinton broth

Structure (SMILES) | bacterial growth OD600 (polymyxin B 1 µg/mL) | bacterial growth OD600 (polymyxin B 0.75 µg/mL)
Cc1nn(C)cc1CN1CCN(Cc2ccccc2F)C(CCO)C1 (stereo not given) | 0.907 | 
COCC(=O)Nc1cc(C(=O)N(C)CCc2cnn(C)c2)c2c(c1)ncn2Cc1ccc(F)cc1 |  | 0.82
COc1ccc(CC2(CCC(=O)N3CC4(C)CC3CC(C)(C)C4)CCC(=O)N2)c2ccccc12 (stereo not given) |  | 0.005
CC(C)c1noc(-c2ccc(NCc3cn4ccsc4n3)nc2)n1 |  | 0.867
CCCN1CCC(C(=O)Nc2ccc(Oc3ccccc3F)cc2)CC1 | 1.06 | 
COCC(=O)Nc1cc(C(=O)N2CCC(c3ccccc3)CC2)cc2ncn(CCc3ccccc3)c12 |  | 1.04
CC1(C)Cc2c(cnn2-c2cccc(F)c2)C(NC(=O)CN2CCCCC2)C1 (stereo not given) |  | 0.94
O=C(NC1CCCN(CC2CCCCC2)C1)c1ccc2[nH]ccc2c1 (stereo not given) |  | 0.791
C=CCN(CC=C)C(=O)CC1(c2ccccc2OC)CC(=O)N(C2CCCC2)C1=O (stereo not given) |  | 0.005
C=C(C)CN(CC)Cc1c(C(=O)N2CCc3ccccc3C2)nc2ccc(Cl)cn12 |  | -0.004
CC(C)CNC1CCN(c2ccc(C(=O)NC(C)c3ccccc3)cc2)CC1 (stereo not given) |  | 0.788
COc1cc(OC)c(OC)cc1CN(CC1CCN(C2CCCC2)CC1)CC1CCCO1 (stereo not given) | 0.687 | 
COc1cccc(CCC(=O)N2CC(=O)N(c3ccccc3SC)C(C)C2)c1 (stereo not given) |  | 0.81
O=C(c1ccc(NCC2CCCCO2)nc1)N1CCC(CCn2cccn2)CC1 (stereo not given) | 0.969 | 
Cc1cnc(SCCN2CCOCC2)nc1C1CCCN(C(=O)Cc2c(F)ccc(F)c2F)C1 (stereo not given) |  | 0.968
Cc1cc(-c2ccnc(-n3ncc(C(=O)N(CCO)Cc4ccccc4)c3C3CC3)n2)c(C)s1 |  | 0.858
Cc1c(CC(=O)NC2CCOCC2)c2c(n1Cc1ccccc1)CCCC2=O | 1.08 | 
CCNC(=O)N1CCC(C2CCN(c3ncccn3)CC2)C1 (stereo not given) |  | 0.85
C/C(=C\c1ccccc1)CN1CCC(n2nccc2NC(=O)c2cccnc2)CC1 |  | 0.901
Cc1cc(C)c(C(=O)N2CCc3onc(-c4ccc5c(c4)OCO5)c3C2)o1 |  | 0.032
COc1cc(CN2CCC3(CC2)CC3C(=O)N2CCCN(C)CC2)cc(OC)c1 (stereo not given) |  | 0.957
CSCCC(=O)NCC1Cc2cc(C)cc(-c3ccccn3)c2O1 (stereo not given) |  | 0.84
O=C1N(C2Cc3ccccc3C2)C[C@@H]2C[C@@H](c3cccc4c3OCO4)N3CCC[C@@]123 | 0.017 | 
C=CCC(=O)NC(C)c1cnc(N2CCCCCCC2)nc1C (stereo not given) | 1.1 | 
Cn1cc(CN2CCCC(C(=O)N3CCOCC3)C2)c(-c2ccc3c(c2)OCCO3)n1 (stereo not given) | 0.847 | 
Cc1cc(C)n(-c2cccc(CNC3COc4ccccc4C3)c2)n1 (stereo not given) | 1.18 | 
COc1ccc(C(=O)N2CCCC2)c(OC2CCN(Cc3ccccc3)CC2)c1 | 0.892 | 
COCC(=O)Nc1cc(C(=O)N(C)Cc2cn(C)nc2C)c2c(c1)ncn2Cc1ccc(F)cc1 |  | 0.909
CO[C@H]1[C@H](NC(=O)COc2ccccc2)c2ccccc2C12CCN(C(=O)c1c(C)noc1C)CC2 |  | 0.9
CC1CCCN(C(=O)CC2(c3ccc(-c4ccccc4)cc3)CC(=O)N(C3CC3)C2=O)C1 (stereo not given) |  | 0.004

Two entries from above, comma-delimited.
Structure (SMILES),bacterial growth OD600 (polymyxin B 1 µg/mL),bacterial growth OD600 (polymyxin B 0.75 µg/mL)
CC1(C)Cc2c(cnn2-c2cccc(F)c2)C(NC(=O)CN2CCCCC2)C1 (stereo not given),,0.94
COc1cccc(CCC(=O)N2CC(=O)N(c3ccccc3SC)C(C)C2)c1 (stereo not given),,0.81
